The other results are listed elsewhere or left out. These are further read-outs of the screen, such as a control signal, another cell line or another target. No call is given for them. Compounds called inactive in the main read-out are mostly missing here. The note in brackets gives the kind of curve behind each potency; many fits are weak.
Assay: qHTS Assay for Lipid Storage Modulators in Drosophila S3 Cells;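 for cell number change: cells counted by Cell Tracker Red CMTPX staining in the red channel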
Conditions: BODIPY lipid droplet fluorescence, 18-24 h; for cell number change: measured here: cell count max response, cells fed with added oleic acid
Method in brief: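 Drosophila S3 cells loaded with oleic acid (400 uM, as added) and compounds at several concentrations; lipid droplets imaged by 488-nm laser-scanning cytometry, 500–530 nm intensity and object ratio to cell channel. Percent activity normalized to 20 uM Triacsin C.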

[1] = measured here: lipid fluorescence (Fed channel) AC50, cells fed with added oleic acid
[2] = measured here: cell number channel AC50, cells fed with added oleic acid

SMILES	AC50 [1]	cell number change [%]	AC50 [2]
O=C(NCc1ccccc1Cl)c1cc2c(s1)CS(=O)(=O)C2	0.366 µM [rising, full curve, poor fit]		
COc1ccc(-c2nc(CSCC(=O)NC3CCN(Cc4ccccc4)CC3)c(C)o2)cc1OC	6.51 µM [rising, single point]	21.6	0.116 µM [rising, full curve, poor fit]
COc1ccc(C2=NN(C(=O)c3ccccc3)C(c3ccc(OC)c(OC)c3)C2)c(O)c1 (stereo not drawn)	29.1 µM [falling, single point]	-20.8	
CS(=O)(=O)N(CC(=O)N1CCCC1)c1ccc(Cl)c(Cl)c1		36.2	9.2 µM [rising, partial curve, poor fit]
N=c1c2c(-c3ccccc3)c(-c3ccccc3)n(Cc3ccco3)c2ncn1Cc1ccccc1	6.51 µM [rising, single point]	-4.85	0.13 µM [rising, full curve, poor fit]
Cc1ccc(-c2nn(C)c(=O)c3ccccc23)cc1CNC(=O)NC1CCCCC1	0.58 µM [rising, full curve]	25.8	
O=C(c1ccc2nc(Cc3cccc(Cl)c3)oc2c1)N1CCOCC1	6.51 µM [rising, single point]	5.49	0.82 µM [rising, full curve, poor fit]
Cc1ccc(CN2CCSc3ccc(C(=O)NCCCN4CCOCC4)cc32)cc1	6.51 µM [rising, single point]	-5.9	
Cc1cc(C)n(C(=O)CCC(=O)NCc2ccccc2)n1	0.206 µM [falling, full curve, poor fit]	-31.7	5.17 µM [falling, partial curve, poor fit]
Cc1ccc(CNC(=O)c2cncc(Br)c2)cc1		-11.3	
Cc1c(OCC(=O)NCc2ccccn2)ccc2c(-c3ccccc3)cc(=O)oc12	29.1 µM [falling, single point]	5.18	
Cc1cc(C(=O)N[C@H](c2ccccc2)[C@@]2(C)C[C@@H]2[C@@H](C)C(=O)Nc2ccc3ccccc3c2)n(C)n1	32.6 µM [falling, single point]	1.72	
Cn1cnnc1SCC(=O)Nc1ccccc1C(=O)NC1CC1	0.82 µM [rising, full curve]		1.16 µM [rising, full curve, poor fit]
Cc1onc(CO)c1C(=O)Nc1nccs1		22.5	0.00517 µM [rising, full curve, poor fit]
Cc1ccc(C(=O)NC(=S)Nc2ccc(NC(=O)c3cccc(Cl)c3)cc2)cc1	29.1 µM [falling, single point]	-1.36	
CSc1ccccc1C(=O)Nc1ccc(C)c(C)c1		46	3.26 µM [rising, full curve, poor fit]
COc1ccccc1CNC(=O)Cc1ccc(C)cc1	0.517 µM [rising, single point]	-17.6	
Cc1nc(-c2cccc(S(=O)(=O)N3CC(C)OC(C)C3)c2)cs1 (stereo not drawn)	5.8 µM [falling, single point]	10.5	
CCN(CC(=O)NC(=O)NCc1ccccc1)Cc1nc2ccccc2c(=O)[nH]1	0.103 µM [rising, full curve, poor fit]	-7.29	0.461 µM [rising, partial curve, poor fit]
Cc1ccc(NC(=O)C2CCCN2S(=O)(=O)c2ccc3c(c2)n(C)c(=O)c(=O)n3C)c(C)c1 (stereo not drawn)	0.58 µM [rising, partial curve, poor fit]	23	

SMILES	AC50 [1]	cell number change [%]	AC50 [2]
CC1=C(C(=O)NCc2ccccc2)C(c2cccs2)NC(=S)N1 (stereo not drawn)		-6.39	
Cc1ccc(CNC(=O)CCC(=O)N2CC(C)Oc3ccc(Cl)cc32)cc1 (stereo not drawn)	16.4 µM [falling, single point]	-15.3	
Cc1ccc(OCC(=O)NS(=O)(=O)c2ccc(Cl)cc2)cc1		6.16	
COc1ccc(-c2cc(OC)c3ccccc3n2)cc1	20.6 µM [rising, single point]	3.73	
O=[N+]([O-])c1cccc(S(=O)(=O)Nc2ccc(Cc3ccncc3)cc2)c1	0.092 µM [rising, single point]	9.03	
Cc1ccc(NC(=O)C2CCCN2C(=O)Oc2ccccc2)cc1C (stereo not drawn)	0.82 µM [rising, single point]	67.1	9.2 µM [rising, partial curve]
Cc1cccc(N2C(=O)c3cccc(Oc4ccc(Cl)cc4)c3C2=O)c1	5.8 µM [rising, partial curve]	-5.97	
CCC(C)SCC(=O)Nc1ccc(S(=O)(=O)N2CCOCC2)cc1OC (stereo not drawn)	2.06 µM [rising, single point]	-18.6	
CN(C)c1ccc(/C=C2\N=C(C(C)(C)C)OC2=O)cc1	4.11 µM [falling, single point]	9.25	
CCOc1cccc(NC(=O)Cc2cccs2)c1	0.651 µM [rising, full curve]	2.58	
CC(C)(C)n1cnc(C(N)=O)c1N	0.103 µM [falling, full curve, poor fit]	-2.71	
CN(C)CCNC(=O)c1ccc2c(c1)NC(=O)c1ccccc1S2		13.9	
COc1ccccc1CNC1CCN(Cc2ccccc2)CC1	5.8 µM [rising, single point]	6.08	
O=C(COc1ccc(S(=O)(=O)NC2CCCCC2)cc1)Nc1ccc2c(c1)OCCO2	6.51 µM [rising, partial curve]	31	32.6 µM [rising, single point]
Cc1cc(=O)oc2c1c(C)nn2-c1nn[nH]n1	5.8 µM [falling, full curve]	-23.8	
CC(=O)c1ccc(S(=O)(=O)Nc2ccccc2C(=O)NC2CC2)cc1	6.51 µM [rising, single point]	0.746	5.17 µM [rising, single point]
COc1ccc2cc(C(=O)N/N=C/c3cc(OC)c(OC)c(OC)c3)[nH]c2c1	29.1 µM [rising, single point]		
O=C(COc1ccccc1)Nc1nnc(S(=O)(=O)N2CCCCCC2)s1	29.1 µM [falling, single point]	21.9	
CCCCSc1nc(NCc2ccco2)c2c3c(sc2n1)COC(C)(C)C3	18.4 µM [rising, single point]	-12.8	
CCOc1ccc2c(c1)c1nnc(SCC(=O)N3CCCCC3C)nc1n2C (stereo not drawn)		-19.4	

SMILES	AC50 [1]	cell number change [%]	AC50 [2]
CCOC(=O)N1CCN(C(=O)c2nn(C)c3c2CSc2ccccc2-3)CC1	25.9 µM [falling, single point]	-7.2	
CCCCc1cc2c(c(NC(=O)CC)n1)c(=O)oc1ccccc12		-0.583	
CCC(NC(=O)Cc1c(C)c2c(cc(C)c3c(C)c(C)oc32)oc1=O)C(=O)O (stereo not drawn)	29.1 µM [rising, single point]		
Cc1ccsc1C(=O)NNC(=O)c1ccc(NS(=O)(=O)c2cccs2)cc1		5.62	
Cn1[nH]c(C(F)(F)F)c(C=Nc2ccc(Cl)cc2)c1=O		-4.9	
O=C(N/N=C/c1ccc[nH]1)c1c[nH]c2ccccc12	11.6 µM [rising, single point]	-19.9	
COc1ccc(C2CC(c3cccc(OC)c3OC)n3nnnc3N2)cc1 (stereo not drawn)		-1.38	
COc1ccc(/C=C2\SC(=O)N(CC(=O)NCCC(C)C)C2=O)cc1OC	0.366 µM [falling, full curve]	-34.5	14.6 µM [falling, partial curve]
CN(C)c1ccc(C=NC(CO)C(O)c2ccc([N+](=O)[O-])cc2)cc1 (stereo not drawn)	20.6 µM [rising, single point]	25.4	
Cc1ccnc(NC(c2ccccc2O)c2oc(CO)cc(=O)c2O)c1 (stereo not drawn)	32.6 µM [rising, single point]	21.3	
O=C(c1cc([N+](=O)[O-])cc([N+](=O)[O-])c1)N1CCN(C(=O)c2ccco2)CC1	0.146 µM [falling, full curve, poor fit]	-16.4	0.00461 µM [falling, full curve, poor fit]
NC(=O)C1=C[C@@H](c2coc3ccccc3c2=O)C[C@@H](OCCCCO)O1		35	0.103 µM [rising, full curve, poor fit]
CCOc1cc(/C=N/NC(=O)CN2CCCCC2)ccc1OCc1ccccc1	0.082 µM [falling, full curve, poor fit]	-9.57	
Cc1csc(SCC(=O)Nc2nnc(C)s2)n1	6.51 µM [rising, single point]	10.9	
CC[C@H](C)[C@H](NC(N)=O)C(=O)Nc1ccc(OC)c(Cl)c1		35.2	0.517 µM [rising, full curve, poor fit]
CCCN(CCC)C(=O)Cc1coc2ccc3ccccc3c12		38.1	8.2 µM [rising, partial curve, poor fit]
Cc1cc(NC(=O)CSCc2nc(-c3cccc(F)c3)oc2C)no1	2.06 µM [falling, partial curve]	19.7	3.66 µM [falling, partial curve]
Cc1c(-c2ccnc3cc(C(=O)O)nn23)cnn1C	29.1 µM [rising, single point]	24.3	
COc1cccc(/C=N/NC(=O)c2[nH]c(C)c(C(=O)N/N=C/c3cccc(OC)c3O)c2C)c1O	32.6 µM [falling, single point]	-30.2	29.1 µM [falling, single point]

As a working copy, some entries already given.
SMILES	AC50 [1]	cell number change [%]	AC50 [2]
COc1ccc(/C=C2\SC(=O)N(CC(=O)NCCC(C)C)C2=O)cc1OC	0.366 µM [falling, full curve]	-34.5	14.6 µM [falling, partial curve]
CN(C)c1ccc(C=NC(CO)C(O)c2ccc([N+](=O)[O-])cc2)cc1 (stereo not drawn)	20.6 µM [rising, single point]	25.4	
Cc1ccnc(NC(c2ccccc2O)c2oc(CO)cc(=O)c2O)c1 (stereo not drawn)	32.6 µM [rising, single point]	21.3	
O=C(c1cc([N+](=O)[O-])cc([N+](=O)[O-])c1)N1CCN(C(=O)c2ccco2)CC1	0.146 µM [falling, full curve, poor fit]	-16.4	0.00461 µM [falling, full curve, poor fit]

— PubChem BioAssay AID2685 (National Center for Advancing Translational Sciences (NCATS), 2010)
